Reference: PubChem BioAssay AID1259254 (NCATS, 2017)
The whole screen tested about 59,000 reagents; this is a part drawn at random. In the full data, about 1,550 (2.6%) got an active call. 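G2 share is only a proxy for re-replication; each gene was hit by three separate siRNAs, and active genes were retested.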 Reagents against one gene are numbered here. Not all columns of the deposit are shown. No sequences are given here. Not given: the amount of reagent.

Aim: 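Finding genes that stop cells copying their DNA twice in one cycle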 (primary screen)
Cell system: human HCT116 colorectal cancer cells
Reagents: single siRNA against human genes
Duration: 3 days
Read-out: 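Nuclei stained with Hoechst and imaged; cell-cycle phase assigned by DNA content; G2 share scaled per plate, non-targeting siRNA 0%, GMNN siRNA 100%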
Scale: G2 robust z-score and G2 cells, % of GMNN control: higher = more G2 cells, more excess DNA replication
Rule for the call: 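An siRNA counts as active if its G2 robust z-score lies at least 5 MADs above the screen median; here such calls match roughly 38% of GMNN control or more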

FOXRED1 #1 → G2 robust z-score = -0.707; G2 cells, % of GMNN control = -2.01; outcome = inactive
FOXRED1 #2 → G2 robust z-score = 6.91; G2 cells, % of GMNN control = 51.6; outcome = active
FOXRED1 #3 → G2 robust z-score = 1.26; G2 cells, % of GMNN control = 11.9; outcome = inactive
DSTYK #1 → G2 robust z-score = -1.36; G2 cells, % of GMNN control = -6.6; outcome = inactive
DSTYK #2 → G2 robust z-score = -1.26; G2 cells, % of GMNN control = -5.89; outcome = inactive
DSTYK #3 → G2 robust z-score = 0.0181; G2 cells, % of GMNN control = 3.09; outcome = inactive
LINC00336 #1 → G2 robust z-score = 1.19; G2 cells, % of GMNN control = 11.3; outcome = inactive
LINC00336 #2 → G2 robust z-score = 2.97; G2 cells, % of GMNN control = 23.9; outcome = inactive
LINC00336 #3 → G2 robust z-score = 0.237; G2 cells, % of GMNN control = 4.63; outcome = inactive
ABCC6 #1 → G2 robust z-score = 2.18; G2 cells, % of GMNN control = 18.3; outcome = inactive
ABCC6 #2 → G2 robust z-score = -0.105; G2 cells, % of GMNN control = 2.23; outcome = inactive
ABCC6 #3 → G2 robust z-score = 2.69; G2 cells, % of GMNN control = 21.9; outcome = inactive
COG3 #1 → G2 robust z-score = 0.811; G2 cells, % of GMNN control = 8.67; outcome = inactive
COG3 #2 → G2 robust z-score = -0.646; G2 cells, % of GMNN control = -1.58; outcome = inactive
COG3 #3 → G2 robust z-score = 0.589; G2 cells, % of GMNN control = 7.11; outcome = inactive

Next part, starting with the last 2 of the part before.
COG3 #2 → G2 robust z-score = -0.646; G2 cells, % of GMNN control = -1.58; outcome = inactive
COG3 #3 → G2 robust z-score = 0.589; G2 cells, % of GMNN control = 7.11; outcome = inactive
NXPH1 #1 → G2 robust z-score = 0.621; G2 cells, % of GMNN control = 7.33; outcome = inactive
NXPH1 #2 → G2 robust z-score = 1.36; G2 cells, % of GMNN control = 12.5; outcome = inactive
NXPH1 #3 → G2 robust z-score = -0.394; G2 cells, % of GMNN control = 0.194; outcome = inactive
MLN #1 → G2 robust z-score = -1.05; G2 cells, % of GMNN control = -4.4; outcome = inactive
MLN #2 → G2 robust z-score = 2.06; G2 cells, % of GMNN control = 17.5; outcome = inactive
MLN #3 → G2 robust z-score = 0.16; G2 cells, % of GMNN control = 4.09; outcome = inactive
LDHD #1 → G2 robust z-score = -0.742; G2 cells, % of GMNN control = -2.25; outcome = inactive
LDHD #2 → G2 robust z-score = -1.22; G2 cells, % of GMNN control = -5.6; outcome = inactive
LDHD #3 → G2 robust z-score = 0.284; G2 cells, % of GMNN control = 4.97; outcome = inactive
